# According to the supplement of paper PMC8728848:
# The list shows a part of the results.
# Tests used:
# Test in all cases: glycan array binding signal (z-score within array); higher = stronger binding
# Details in all cases: glycan notation: IUPAC condensed, linker removed
# Gal(a1-3)Gal = biological target: Gal(a1-3)Gal
# Outline: (§1)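 The Consortium for Functional Glycomics database supplied 3228 glycan arrays, of which those lacking an available protein sequence were dropped. The binding signal, a within-array Z-score, was averaged across arrays of the same protein sequence and across linkers. Negative scores can be read as non-binding.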
# Gal(a1-3)Gal(b1-3)GlcNAc = biological target: Gal(a1-3)Gal(b1-3)GlcNAc
# Outline: as §1
# [1] = biological target: Gal(a1-3)Gal(b1-3)GlcNAc(b1-2)Man
# Outline: as §1
# [2] = biological target: Gal(a1-3)Gal(b1-3)GlcNAc(b1-2)Man(a1-3)[Gal(a1-3)Gal(b1-3)GlcNAc(b1-2)Man(a1-6)]Man(b1-4)GlcNAc(b1-4)GlcNAc
# Outline: as §1
# [3] = biological target: Gal(a1-3)Gal(b1-3)GlcNAc(b1-3)GalNAc
# Outline: as §1
# [4] = biological target: Gal(a1-3)Gal(b1-3)GlcNAc(b1-6)GalNAc
# Outline: as §1
# [5] = biological target: Gal(a1-3)Gal(b1-3)[Fuc(a1-4)]GlcNAc(b1-2)Man(a1-3)[Gal(a1-3)Gal(b1-3)[Fuc(a1-4)]GlcNAc(b1-2)Man(a1-6)]Man(b1-4)GlcNAc(b1-4)GlcNAc
# Outline: as §1
# Gal(a1-3)Gal(b1-4)Glc = biological target: Gal(a1-3)Gal(b1-4)Glc
# Outline: as §1
# Gal(a1-3)Gal(b1-4)GlcNAc = biological target: Gal(a1-3)Gal(b1-4)GlcNAc
# Outline: as §1
# [6] = biological target: Gal(a1-3)Gal(b1-4)GlcNAc(b1-2)Man
# Outline: as §1
# [7] = biological target: Gal(a1-3)Gal(b1-4)GlcNAc(b1-2)Man(a1-3)[Gal(a1-3)Gal(b1-4)GlcNAc(b1-2)Man(a1-6)]Man(b1-4)GlcNAc(b1-4)GlcNAc
# Outline: as §1
# [8] = biological target: Gal(a1-3)Gal(b1-4)GlcNAc(b1-3)GalNAc
# Outline: as §1
# [9] = biological target: Gal(a1-3)Gal(b1-4)GlcNAc(b1-6)GalNAc
# Outline: as §1
# [10] = biological target: Gal(a1-3)Gal(b1-4)[Fuc(a1-3)]GlcNAc
# Outline: as §1
# [11] = biological target: Gal(a1-3)Gal(b1-4)[Fuc(a1-3)]GlcNAc(b1-2)Man(a1-3)[Gal(a1-3)Gal(b1-4)[Fuc(a1-3)]GlcNAc(b1-2)Man(a1-6)]Man(b1-4)GlcNAc(b1-4)GlcNAc
# Outline: as §1
# Gal(a1-3)GalNAc = biological target: Gal(a1-3)GalNAc
# Outline: as §1
# [12] = biological target: Gal(a1-3)[Gal(a1-4)]Gal(b1-4)GlcNAc
# Outline: as §1
# [13] = biological target: Gal(a1-4)Gal(b1-3)GlcNAc(b1-2)Man(a1-3)[Gal(a1-4)Gal(b1-3)GlcNAc(b1-2)Man(a1-6)]Man(b1-4)GlcNAc(b1-4)GlcNAc
# Outline: as §1
# Gal(a1-4)Gal(b1-4)Glc = biological target: Gal(a1-4)Gal(b1-4)Glc
# Outline: as §1
# Gal(a1-4)Gal(b1-4)GlcNAc = biological target: Gal(a1-4)Gal(b1-4)GlcNAc
# Outline: as §1
# [14] = biological target: Gal(a1-4)Gal(b1-4)GlcNAc(b1-2)Man(a1-3)[Gal(a1-4)Gal(b1-4)GlcNAc(b1-2)Man(a1-6)]Man(b1-4)GlcNAc(b1-4)GlcNAc
# Outline: as §1
# [15] = biological target: Gal(a1-4)Gal(b1-4)GlcNAc(b1-3)Gal(b1-4)Glc
# Outline: as §1
# Gal(a1-4)GlcNAc = biological target: Gal(a1-4)GlcNAc
# Outline: as §1
# Gal(a1-6)Glc = biological target: Gal(a1-6)Glc
# Outline: as §1
# Gal(b1-2)Gal = biological target: Gal(b1-2)Gal
# Outline: as §1
# Gal(b1-3)Gal = biological target: Gal(b1-3)Gal
# Outline: as §1
# Gal(b1-3)Gal(b1-4)GlcNAc = biological target: Gal(b1-3)Gal(b1-4)GlcNAc
# Outline: as §1
# Gal(b1-3)GalNAc = biological target: Gal(b1-3)GalNAc
# Outline: as §1
# [16] = biological target: Gal(b1-3)GalNAc(a1-3)[Fuc(a1-2)]Gal(b1-4)Glc
# Outline: as §1
# [17] = biological target: Gal(b1-3)GalNAc(a1-3)[Fuc(a1-2)]Gal(b1-4)GlcNAc
# Outline: as §1
# Gal(b1-3)GalNAc(b1-3)Gal = biological target: Gal(b1-3)GalNAc(b1-3)Gal
# Outline: as §1
# [18] = biological target: Gal(b1-3)GalNAc(b1-3)Gal(a1-4)Gal(b1-4)Glc
# Outline: as §1
# [19] = biological target: Gal(b1-3)GalNAc(b1-4)Gal(b1-4)Glc
# Outline: as §1
# [20] = biological target: Gal(b1-3)GalNAc(b1-4)[Neu5Ac(a2-3)]Gal(b1-4)Glc
# Outline: as §1
# Gal(b1-3)GlcNAc = biological target: Gal(b1-3)GlcNAc
# Outline: as §1
# [21] = biological target: Gal(b1-3)GlcNAc(a1-3)Gal(b1-4)GlcNAc
# Outline: as §1
# [22] = biological target: Gal(b1-3)GlcNAc(a1-6)Gal(b1-4)GlcNAc
# Outline: as §1
# Gal(b1-3)GlcNAc(b1-2)Man = biological target: Gal(b1-3)GlcNAc(b1-2)Man
# Outline: as §1
binder,measurement,setting,value
Epa11 (Candida glabrata) (protein) MGSSHHHHHHSSGLVPRGSHMASSNAPNYPVGCSPSVGTQLTPGLSLEVYAYPMDGNNGYCWNATYKDPEFPRSGYLKNKLLGKADGVVGPLNFLAKNKDCSPKVDTLPAGFNFPQPITVTNFTMVLFGYLAPKQSGKYTFKLLADDLLLLNLGATNAFDCCNREATKNNLGEFLAYNLWPNQDKNVTVYLEKGVYYPLRLFFNNRDGGSQLDFSYYFNDSPAPLTDFSGMFFSVPDGAECPARI,glycan array binding signal (z-score),Gal(a1-3)Gal,0.323
same,glycan array binding signal (z-score),Gal(a1-3)Gal(b1-3)GlcNAc,1.3
same,glycan array binding signal (z-score),[1],1.54
same,glycan array binding signal (z-score),[2],1.11
same,glycan array binding signal (z-score),[3],0.909
same,glycan array binding signal (z-score),[4],1.53
same,glycan array binding signal (z-score),[5],0.465
same,glycan array binding signal (z-score),Gal(a1-3)Gal(b1-4)Glc,0.246
same,glycan array binding signal (z-score),Gal(a1-3)Gal(b1-4)GlcNAc,0.391
same,glycan array binding signal (z-score),[6],0.295
same,glycan array binding signal (z-score),[7],1.5
same,glycan array binding signal (z-score),[8],0.608
same,glycan array binding signal (z-score),[9],0.676
same,glycan array binding signal (z-score),[10],0.242
same,glycan array binding signal (z-score),[11],1.44
same,glycan array binding signal (z-score),Gal(a1-3)GalNAc,0.558
same,glycan array binding signal (z-score),[12],-0.22
same,glycan array binding signal (z-score),[13],1.7
same,glycan array binding signal (z-score),Gal(a1-4)Gal(b1-4)Glc,-0.311
same,glycan array binding signal (z-score),Gal(a1-4)Gal(b1-4)GlcNAc,0.12
same,glycan array binding signal (z-score),[14],0.138
same,glycan array binding signal (z-score),[15],-0.48
same,glycan array binding signal (z-score),Gal(a1-4)GlcNAc,1.12
same,glycan array binding signal (z-score),Gal(a1-6)Glc,1.6
same,glycan array binding signal (z-score),Gal(b1-2)Gal,-0.377
same,glycan array binding signal (z-score),Gal(b1-3)Gal,-0.015
same,glycan array binding signal (z-score),Gal(b1-3)Gal(b1-4)GlcNAc,-0.445
same,glycan array binding signal (z-score),Gal(b1-3)GalNAc,-0.012
same,glycan array binding signal (z-score),[16],0.498
same,glycan array binding signal (z-score),[17],0.575
same,glycan array binding signal (z-score),Gal(b1-3)GalNAc(b1-3)Gal,-0.185
same,glycan array binding signal (z-score),[18],-0.286
same,glycan array binding signal (z-score),[19],-0.851
same,glycan array binding signal (z-score),[20],-0.305
same,glycan array binding signal (z-score),Gal(b1-3)GlcNAc,-0.003
same,glycan array binding signal (z-score),[21],0.848
same,glycan array binding signal (z-score),[22],-0.399
same,glycan array binding signal (z-score),Gal(b1-3)GlcNAc(b1-2)Man,1.14

# No new results follow: entries from further up.
binder,measurement,setting,value
Epa11 (Candida glabrata) (protein) MGSSHHHHHHSSGLVPRGSHMASSNAPNYPVGCSPSVGTQLTPGLSLEVYAYPMDGNNGYCWNATYKDPEFPRSGYLKNKLLGKADGVVGPLNFLAKNKDCSPKVDTLPAGFNFPQPITVTNFTMVLFGYLAPKQSGKYTFKLLADDLLLLNLGATNAFDCCNREATKNNLGEFLAYNLWPNQDKNVTVYLEKGVYYPLRLFFNNRDGGSQLDFSYYFNDSPAPLTDFSGMFFSVPDGAECPARI,glycan array binding signal (z-score),[19],-0.851
same,glycan array binding signal (z-score),[20],-0.305
